PubChem BioAssay AID1224830 – NIAID | 2016
Screen: 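Host factors that control LPS-induced TNF expression in human macrophages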 (primary screen). Cell system: human THP-1 monocytic leukaemia cells, TNF dual-luciferase reporter clone, PMA-differentiated to macrophage-like cells. Reagent: siRNA pool against human genes, 50 nM. Timing: LPS for 4 h, given about 3 days after siRNA transfection. Conditions: bacterial LPS (TLR4 ligand), 10 ng/ml. Detection: 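TNF firefly reporter luminescence divided by renilla, normalised to the plate median, then turned into a robust z-score for each replicate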. Scale: TNF reporter robust z-score: higher = stronger TNF reporter response to LPS. Call rule: 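a well is active when its z-score exceeds 2.8 or falls below -1.5; control wells carry no call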.
In all, the deposit lists about 18,000 reagents; shown is a part drawn at random. Over the whole deposit, about 2,900 (16%) were called active. 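Calls are made per well; low scores hint the gene aids the LPS response, high scores that it dampens it.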 Repeated entries: four replicate wells of each siRNA pool. Reagent sequences are not shown.

target gene | TNF reporter robust z-score | activity call
PLCB3 | -0.12 | inactive
PLCB3 | -0.72 | inactive
PLCB3 | -0.79 | inactive
PLCB3 | 0.15 | inactive
HOXC12 | -0.08 | inactive
HOXC12 | 0.67 | inactive
HOXC12 | 0.97 | inactive
HOXC12 | 0.05 | inactive
HOMEZ | 0.49 | inactive
HOMEZ | 2.32 | inactive
HOMEZ | 1.2 | inactive
HOMEZ | 1.35 | inactive
EEF2KMT | -1.06 | inactive
EEF2KMT | -0.73 | inactive
EEF2KMT | -0.7 | inactive
EEF2KMT | -0.52 | inactive
SALL2 | -0.84 | inactive
SALL2 | -0.3 | inactive
SALL2 | -0.51 | inactive
SALL2 | 0.56 | inactive
CFAP52 | -0.51 | inactive
CFAP52 | 0.32 | inactive
CFAP52 | -0.87 | inactive
CFAP52 | -0.56 | inactive
VEPH1 | -1.79 | active
VEPH1 | -1.22 | inactive
VEPH1 | -0.91 | inactive
VEPH1 | -0.83 | inactive
NHP2 | -0.12 | inactive
NHP2 | -0.54 | inactive
NHP2 | 0.25 | inactive
NHP2 | -0.1 | inactive
C11orf65 | -1.32 | inactive
C11orf65 | -0.98 | inactive
C11orf65 | -0.82 | inactive
C11orf65 | 0.23 | inactive
GAL | 0.23 | inactive
GAL | 0.06 | inactive
GAL | 0.71 | inactive
GAL | 0.16 | inactive
SYT11 | -0.58 | inactive
SYT11 | -0.81 | inactive
SYT11 | -0.12 | inactive
SYT11 | 0.13 | inactive
PLEK | -0.15 | inactive
PLEK | 0.23 | inactive
PLEK | 0.77 | inactive
PLEK | -0.13 | inactive
SLC1A4 | 0.09 | inactive
SLC1A4 | 0.41 | inactive
SLC1A4 | 1.07 | inactive
SLC1A4 | 1.66 | inactive

Next part; the last 3 above are carried over.
target gene | TNF reporter robust z-score | activity call
SLC1A4 | 0.41 | inactive
SLC1A4 | 1.07 | inactive
SLC1A4 | 1.66 | inactive
RASSF9 | 0.08 | inactive
RASSF9 | 0.67 | inactive
RASSF9 | 0.73 | inactive
RASSF9 | 0.85 | inactive
TATDN2 | -0.4 | inactive
TATDN2 | 0.58 | inactive
TATDN2 | 0.71 | inactive
TATDN2 | 2.06 | inactive
SIK1 | -0.31 | inactive
SIK1 | 0.8 | inactive
SIK1 | -0.01 | inactive
SIK1 | -0.85 | inactive
GREM2 | 0.77 | inactive
GREM2 | 2.31 | inactive
GREM2 | -0.46 | inactive
GREM2 | -0.47 | inactive
TTLL5 | 3.7 | active
TTLL5 | 0.02 | inactive
TTLL5 | -0.09 | inactive
TTLL5 | 0.58 | inactive
PROSER1 | 0.11 | inactive
PROSER1 | 0.85 | inactive
PROSER1 | 1.37 | inactive
PROSER1 | 1.68 | inactive
SCN4B | -0.51 | inactive
SCN4B | 0.27 | inactive
SCN4B | -1.76 | active
SCN4B | -0.35 | inactive
OXTR | -0.63 | inactive
OXTR | 1.06 | inactive
OXTR | -0.78 | inactive
OXTR | 0.28 | inactive
MRAP | 1.08 | inactive
MRAP | 1.03 | inactive
MRAP | 0 | inactive
MRAP | 1.41 | inactive
RRP12 | -0.32 | inactive
RRP12 | 0.74 | inactive
RRP12 | -0.6 | inactive
RRP12 | -0.01 | inactive
SESN1 | 1.26 | inactive
SESN1 | 0.42 | inactive
SESN1 | 0.47 | inactive
SESN1 | 1.31 | inactive
SLC33A1 | 1.7 | inactive
SLC33A1 | 1.47 | inactive
SLC33A1 | 2.78 | inactive
SLC33A1 | 2.58 | inactive
C19orf53 | 1.56 | inactive
C19orf53 | 3.04 | active
C19orf53 | 3.22 | active
C19orf53 | 2.62 | inactive
GPATCH3 | -0.22 | inactive
GPATCH3 | 0.28 | inactive
GPATCH3 | 0 | inactive
GPATCH3 | 0.54 | inactive
CHRNE | 0.09 | inactive
CHRNE | -0.37 | inactive
CHRNE | -0.7 | inactive
CHRNE | -1.65 | active
